Values of other authors as cited in patent US8097625B2, “Combination of sedative and a neurotransmitter modulator, and methods for improving sleep quality and treating depression” (priority 2003, dated 2012).
The match of structure and compound is tentative.

The chains behind the UniProt entries cited, without tags or fusion partners.
UniProt Q01959, whole entry: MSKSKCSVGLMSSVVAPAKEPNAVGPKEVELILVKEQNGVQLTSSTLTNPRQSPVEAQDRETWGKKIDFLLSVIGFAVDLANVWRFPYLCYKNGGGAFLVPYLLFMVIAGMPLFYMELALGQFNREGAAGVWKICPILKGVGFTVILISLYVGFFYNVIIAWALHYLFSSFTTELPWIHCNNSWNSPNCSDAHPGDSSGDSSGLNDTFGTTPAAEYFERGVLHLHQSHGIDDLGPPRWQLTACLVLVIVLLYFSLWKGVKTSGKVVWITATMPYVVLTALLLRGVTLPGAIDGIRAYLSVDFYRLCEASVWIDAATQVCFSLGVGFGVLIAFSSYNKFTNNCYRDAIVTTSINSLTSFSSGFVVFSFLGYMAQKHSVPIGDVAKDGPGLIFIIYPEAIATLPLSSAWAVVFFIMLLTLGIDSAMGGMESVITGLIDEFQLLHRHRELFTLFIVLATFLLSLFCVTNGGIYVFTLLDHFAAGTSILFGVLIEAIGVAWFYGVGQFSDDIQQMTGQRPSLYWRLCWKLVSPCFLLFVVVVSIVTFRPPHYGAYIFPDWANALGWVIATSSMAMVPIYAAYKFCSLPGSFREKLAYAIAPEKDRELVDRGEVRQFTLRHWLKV
UniProt P31645, whole entry: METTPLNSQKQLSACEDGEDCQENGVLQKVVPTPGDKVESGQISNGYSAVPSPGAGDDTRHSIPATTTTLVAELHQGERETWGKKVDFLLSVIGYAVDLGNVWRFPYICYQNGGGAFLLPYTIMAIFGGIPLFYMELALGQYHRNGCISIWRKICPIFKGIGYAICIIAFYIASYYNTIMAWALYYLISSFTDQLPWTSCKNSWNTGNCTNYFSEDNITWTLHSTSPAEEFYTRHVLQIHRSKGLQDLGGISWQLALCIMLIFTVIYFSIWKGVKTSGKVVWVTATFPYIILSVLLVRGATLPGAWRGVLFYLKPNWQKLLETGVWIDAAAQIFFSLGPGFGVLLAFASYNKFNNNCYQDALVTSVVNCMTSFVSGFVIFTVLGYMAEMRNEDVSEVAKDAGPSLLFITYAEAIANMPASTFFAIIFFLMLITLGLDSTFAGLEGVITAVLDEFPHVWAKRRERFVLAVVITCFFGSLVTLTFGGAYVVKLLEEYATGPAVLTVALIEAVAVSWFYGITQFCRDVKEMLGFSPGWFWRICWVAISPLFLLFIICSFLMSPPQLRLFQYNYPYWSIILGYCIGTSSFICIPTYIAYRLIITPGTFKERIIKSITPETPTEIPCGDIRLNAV
UniProt P23975, whole entry: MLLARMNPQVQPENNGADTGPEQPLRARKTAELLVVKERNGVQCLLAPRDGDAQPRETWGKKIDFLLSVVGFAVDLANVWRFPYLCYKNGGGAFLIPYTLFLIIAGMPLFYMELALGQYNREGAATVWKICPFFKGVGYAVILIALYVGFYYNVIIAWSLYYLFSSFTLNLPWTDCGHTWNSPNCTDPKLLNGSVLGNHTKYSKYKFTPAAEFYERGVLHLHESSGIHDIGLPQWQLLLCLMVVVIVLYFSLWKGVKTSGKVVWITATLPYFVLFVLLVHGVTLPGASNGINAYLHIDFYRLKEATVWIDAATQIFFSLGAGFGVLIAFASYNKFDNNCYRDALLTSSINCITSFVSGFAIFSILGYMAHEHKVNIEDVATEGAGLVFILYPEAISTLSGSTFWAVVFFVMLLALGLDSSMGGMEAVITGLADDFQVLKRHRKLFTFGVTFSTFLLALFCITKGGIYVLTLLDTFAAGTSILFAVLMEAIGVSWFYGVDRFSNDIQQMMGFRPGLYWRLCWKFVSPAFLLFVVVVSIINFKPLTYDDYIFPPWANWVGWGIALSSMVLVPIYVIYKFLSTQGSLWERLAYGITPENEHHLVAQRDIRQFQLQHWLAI

Assays:
[1] = biological target: dopamine transporter (Homo sapiens, UniProt Q01959); details: read-out: IC50, dopamine transporter; cited from earlier work
[2] = biological target: serotonin transporter (Homo sapiens, UniProt P31645); details: read-out: Ki, serotonin transporter; cited from earlier work
[3] = biological target: norepinephrine transporter (Homo sapiens, UniProt P23975); details: read-out: Ki, norepinephrine transporter; cited from earlier work

CCC(=O)C1C(c2ccc(C)cc2)CC2CCC1N2C (stereo not drawn)
IC50 [1]: 8.2 nM
Ki [2]: 130 nM
Ki [3]: 160 nM
